According to PubChem BioAssay AID1347076 (National Center for Advancing Translational Sciences (NCATS), 2019):
The whole screen tested about 400,000 compounds, of which about 13,000 (3.2%) were called active. Inconclusive results, whose numbers are uncertain, are shown with a selection of clear calls. The call rests on the fitted dose curve; in most records, active means well fitted cell-killing curve with a large enough effect; inconclusive means small, poorly fitted or top-dose-only effect, or effect the other way; inactive means flat fitted curve, though single readings scatter. A potency beside an inconclusive call is a rough fit, not a confirmed value.

Assay: qHTS assay for MDR1-selective chemotherapeutics: Primary screen using the drug-selected MDR subline cells KB-V1; further: nearly all actives have a fitted effect of over 60% in size
Conditions: KB-V1 MDR cells viability, CellTiter-Glo, 72 h; activity change, negative = cytotoxicity: at 46.1 µM (top of the series)
Procedure, shortened: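 qHTS viability screen in drug-selected KB-V1 MDR cells: 72 h compound treatment at 37 degrees C, ATP luminescence end point.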
On the % scale 0 is the no-effect control and ±100 the full control effect; potency means the concentration at half of the fitted maximal effect.

SMILES | Potency | activity change, negative = cytotoxicity
COc1ccccc1NC(=O)c1ccc(NC(=O)Cc2n[nH]c(=O)c3ccccc23)cc1 | inactive | –
CC(C)CN=c1cc(-c2ccccc2)oc2ccc(Cl)cc12 | inconclusive: 16.4 µM [cytotoxic, single point] | –
COc1cc2c(cc1OC)/C(=C/C(=O)c1cccc([N+](=O)[O-])c1)NCC2 | inconclusive: 29.1 µM [cytotoxic, single point] | –
COc1ccc(-n2c(C)cc(C(=O)CSc3nn4c(=O)c(C(C)(C)C)nnc4s3)c2C)cc1 | inconclusive: 20.6 µM [cytotoxic, partial curve] | –
COc1ccc(NC(=O)C2Cc3c(-c4ccccc4)ccnc3O2)cc1OC (stereo not given) | inconclusive: 23.1 µM [cytotoxic, single point] | –
C/C(CC(=O)NC(C)(C)C)=N\NC(=O)c1ccco1 | inconclusive: 23.1 µM [rising, single point] | –
O=C(c1ccc(F)cc1)N1CCC(C(=O)N2CCN(S(=O)(=O)c3ccccc3Br)CC2)CC1 | inconclusive: 18.4 µM [cytotoxic, single point] | –
CC(=O)Nc1ccc(C(=O)OCC(=O)NC(=O)NC2CCCCC2)cc1 | inactive | –
O=C(CNC(=O)c1ccccc1)OCc1nnc(-c2ccccc2)o1 | inconclusive: 20.6 µM [rising, partial curve, poor fit] | –
NC(=O)c1sc2nc(-c3ccco3)ccc2c1N | inconclusive: 4.11 µM [cytotoxic, partial curve, poor fit] | –
CCn1c2ccccc2c2cc(/C=N/NC(=O)c3ccc(O)cc3)ccc21 | active: 20.6 µM | –
COc1ccc(-c2c3c(nc4sc(C(=O)Nc5cc(C)on5)c(N)c24)CCC3)cc1 | inactive | –
COC(=O)CSc1nnc(CCc2ccccc2)n1C | inconclusive: 29.1 µM [rising, single point] | –
Cc1cccc(OCC(=O)NCC(=O)N/N=C/c2ccccc2)c1 | inactive | –
CN(c1cccc(NC(=O)c2ccc(C(C)(C)C)cc2)c1)S(C)(=O)=O | inconclusive: 29.1 µM [cytotoxic, single point] | –
O=C(Cc1ccc(O)cc1)N/N=C/c1cccs1 | – | inconclusive: -14.3%
COc1ccc(-c2nnc(Nc3nc4c(OC)cccc4s3)o2)cc1 | inconclusive: 4.61 µM [cytotoxic, full curve, poor fit] | –
CC(OC(=O)c1cnccn1)C(=O)c1ccccc1 (stereo not given) | inconclusive: 25.9 µM [rising, single point] | –
CCOC(=O)c1c(C)c(C(=O)NCc2ccc(Cl)cc2)c(C)n1CC | inconclusive: 16.4 µM [cytotoxic, single point] | –
CCOC(=O)C1=C(C)NC2=C(C(=O)CC(c3cccs3)C2)C1c1cccs1 (stereo not given) | active: 14.6 µM | –
O=C(Nc1ccc(Cl)cc1)c1ccc(OC2CSC2)cc1 | inconclusive: 4.61 µM [rising, full curve] | –
Cc1nnsc1S(=O)c1ccccc1Cl (stereo not given) | inconclusive: 0.13 µM [rising, full curve] | –
CCCc1cc(=O)[nH]c(SCC(=O)c2cc(C)n(CCC)c2C)n1 | inconclusive: 20.6 µM [cytotoxic, single point] | –

SMILES | Potency | activity change, negative = cytotoxicity
COc1ccc(Cc2nnc(NC(=O)C3CC(=O)N(c4ccccc4)C3)s2)cc1OC (stereo not given) | inactive | –
CC(=O)c1ccc(S(=O)(=O)NCC(=O)N2CCN(C/C=C/c3ccccc3)CC2)cc1 | active: 18.4 µM | –
Cc1occc1C(=O)NNC(=S)NCc1ccccc1 | inconclusive: 20.6 µM [cytotoxic, single point] | –
Fc1ccc(N2CCN(C(c3cccs3)c3nnnn3CCc3ccccc3)CC2)cc1 (stereo not given) | inconclusive: 32.6 µM [cytotoxic, partial curve, poor fit] | –
Cc1cccc(NC(=O)CN(C)S(=O)(=O)c2cccc3cccnc23)c1C | inconclusive: 9.2 µM [cytotoxic, partial curve] | –
COc1cc(-c2nnc(-c3ccc(N4CCOCC4)cc3)o2)cc(OC)c1OC | inconclusive: 1.16 µM [cytotoxic, full curve] | –
CCOc1cc(C(=O)Nc2nnc(CC)s2)ccc1OCC(=O)N1CCOCC1 | inconclusive: 32.6 µM [rising, partial curve, poor fit] | –
CCCc1cc(=O)[nH]c(SCC(=O)Nc2oc(C)c3c(C)n[nH]c(=O)c23)n1 | inactive | –
CCN1CCN(CCCN(Cc2ccco2)C(=S)Nc2cccc(Cl)c2C)CC1 | inconclusive: 11.6 µM [cytotoxic, partial curve] | –
Cc1cc(OCC(=O)OCC(=O)N2c3ccccc3NC(=O)C2(C)C)ccc1Cl | – | inconclusive: 44.2%
CCCc1nnc(SCC(=O)Nc2nnc(CC)s2)n1CC1CCCO1 (stereo not given) | inactive | –
Cc1ccc(-c2cccc(-c3cc(=O)oc4ccc(C(C)(C)C)cc34)c2)cc1 | inactive | –
NNC(=O)c1[nH]c2ccc(Cl)cc2c1-c1ccccc1 | inconclusive: 29.1 µM [cytotoxic, single point] | –
CN(c1ccccc1)c1nc(-n2ccnc2)nc(-n2ccnc2)n1 | inconclusive: 18.4 µM [cytotoxic, single point] | –
COc1ccc(NCc2cc3ccc(OC)cc3n(CC(=O)Nc3cccc(OC)c3)c2=O)cc1 | inactive | –
Cc1ccc(C(=O)Nc2ccccc2-c2ccccc2)cc1S(=O)(=O)Nc1ccccc1 | inconclusive: 20.6 µM [cytotoxic, partial curve] | –
O=C(Nc1cc(Cl)ccc1Oc1ccccc1)c1ccc(F)cc1 | inconclusive: 18.4 µM [cytotoxic, single point] | –
Cc1cccc(C)c1NC(=O)c1cc(S(=O)(=O)N2CCOCC2)ccc1F | inconclusive: 18.4 µM [cytotoxic, partial curve, poor fit] | –
CCc1ccc(Oc2cc(Cl)nc(N)n2)cc1 | inactive | –
O=C1Nc2ccccc2C1=Nc1ccc(Cl)cc1 | inconclusive: 16.4 µM [rising, partial curve, poor fit] | –
CC(=O)Nc1ccc(CNc2nc(NCCN(C)C)nc3cc(-c4ccccc4)sc23)cc1 | inactive | –
CCOC(=O)CCc1c(C)n(CC)c2ncnn2c1=O | inconclusive: 16.4 µM [rising, single point] | –

Some values from the entries so far.
Value for `COc1ccc(-c2c3c(nc4sc(C(=O)Nc5cc(C)on5)c(N)c24)CCC3)cc1` under Potency: inactive
Value for `CC(C)CN=c1cc(-c2ccccc2)oc2ccc(Cl)cc12` under Potency: inconclusive: 16.4 µM [cytotoxic, single point]
Value for `CCn1c2ccccc2c2cc(/C=N/NC(=O)c3ccc(O)cc3)ccc21` under Potency: active: 20.6 µM
Value for `CCc1ccc(Oc2cc(Cl)nc(N)n2)cc1` under Potency: inactive
